These results are taken from PubChem BioAssay AID192 (DTP/NCI, 2004).

This assay deals with BDF1 mice, B16 melanoma ip, median survival T/C. Description: NCI In Vivo Anticancer Drug Screen. Data for tumor model B16 Melanoma (intraperitoneal) in B6D2F1 (BDF1) mice. The note with it: T/C endpoint: median survival time, higher T/C = longer survival. The method, boiled down: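 Transplantable tumor model; survival or tumor size measured; reported as T/C, treated over vehicle control.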

[1] abbreviates: dose: 50.0 mg/kg/injection, schedule: Q01DX009 (ip), vehicle: Klucel (hydroxypropylcellulose) (HPC).
Where [2] appears, read: dose: 100.0 mg/kg/injection, schedule: Q01DX009 (ip), vehicle: Klucel (hydroxypropylcellulose) (HPC).
Where [3] appears, read: dose: 200.0 mg/kg/injection, schedule: Q01DX009 (ip), vehicle: Klucel (hydroxypropylcellulose) (HPC).
Where [4] appears, read: dose: 400.0 mg/kg/injection, schedule: Q01DX009 (ip), vehicle: Klucel (hydroxypropylcellulose) (HPC).
Setting [5] is: dose: 200.0 mg/kg/injection, schedule: Q01DX009 (ip), vehicle: saline with Tween-80.
[6] abbreviates: dose: 25.0 mg/kg/injection, schedule: Q01DX009 (ip), vehicle: saline.
Setting [7] is: dose: 400.0 mg/kg/injection, schedule: Q01DX009 (ip), vehicle: saline.
[8] abbreviates: dose: 400.0 mg/kg/injection, schedule: Q04DX003 (ip), vehicle: Klucel (hydroxypropylcellulose) (HPC).
[9] abbreviates: dose: 50.0 mg/kg/injection, schedule: Q01DX009 (ip), vehicle: saline.
The mark [10] stands for this setting: dose: 100.0 mg/kg/injection, schedule: Q01DX009 (ip), vehicle: saline with Tween-80.

The list does not hold the whole screen: it gathers tests that were run many times, whatever their T/C, doses with no T/C, and many T/C values between a quarter and a half above the control. Other doses and runs of a compound stand elsewhere. T/C gives the treated animals as a percentage of the vehicle group. Some doses have a count of surviving animals in place of a T/C: the source files T/C as zero there, which appears to mark a toxic dose or a test without result, not a measured value. Some survivor counts are full or nearly so, which does not show that the dose was tolerated: the source hardly ever lists a survival T/C far under the control, and the zero likely stands for such cases as well. Survivors were counted at the toxicity check, usually on the fifth day, unless a day is given; later deaths do not show. Schedule codes are those of the source, taken here to give the interval after Q, in days (D) or hours (H), and the number of doses after X. Where survival is the endpoint, this PubChem deposit counts one and a half times the control or more as active, and values a quarter to a half above the control carry no call in these data; other NCI protocols may use other cut-offs. Some T/C values carry the count of animals alive at the toxicity check (mostly the fifth day); where none is given, no animal had died by that day.

On to `CCCCCCCCCCCCCCCCCCNC(=O)Nc1ccc(C)cc1`, for which the survivor count by setting is: (dose: 85.0 mg/kg/injection, schedule: Q01DX009 (ip), vehicle: saline with Tween-80) 10 of 10; (dose: 170.0 mg/kg/injection, schedule: Q01DX009 (ip), vehicle: saline with Tween-80) 9 of 10; (dose: 340.0 mg/kg/injection, schedule: Q01DX009 (ip), vehicle: saline with Tween-80) 10 of 10.

In the case of `CCCCCCCCCC(=O)CCCC`, the survivor count (dose: 400.0 mg/kg/injection, schedule: Q01DX009 (ip), vehicle: other) was 7 of 10.

`Cc1ccc(NCCN(C)C)c2c(=O)c3cc(O)ccc3sc12`: the T/C reads like this: (dose: 6.0 mg/kg/injection, schedule: Q01DX009 (ip), vehicle: Klucel (hydroxypropylcellulose) (HPC)) 141 % of control; (dose: 12.5 mg/kg/injection, schedule: Q01DX009 (ip), vehicle: Klucel (hydroxypropylcellulose) (HPC)) 134 % of control. For the same compound, the survivor count reads like this: (dose: 48.0 mg/kg/injection, schedule: Q01DX009 (ip), vehicle: Klucel (hydroxypropylcellulose) (HPC)) 10 of 10; under setting [1], 9 of 10; under setting [2], 10 of 10; under setting [3], 3 of 10.

`O=C1C(N2CC2)=C(N2CCCC(O)C2)C(=O)C(N2CC2)=C1N1CCCC(O)C1` (centres undefined): the T/C runs as follows: (dose: 1.0 mg/kg/injection, schedule: Q01DX009 (ip), vehicle: saline) 140 % of control; (dose: 2.0 mg/kg/injection, schedule: Q01DX009 (ip), vehicle: saline) 130 % of control.

As to `CCCCCCCCCCCCCCCCC(C(=O)O)C(O)(CC(=O)O)C(=O)O` (centres undefined), the survivor count under setting [1] is listed as 10 of 10.

With `Cc1ccc(NC(=S)NC(Cc2ccccc2)c2ccccc2)cc1` (centres undefined), the survivor count runs as follows: under setting [2], 10 of 10; under setting [3], 10 of 10; under setting [4], 10 of 10.

For `C/C=C/CNc1ccccc1`, the survivor count under setting [5] was 6 of 10.

Regarding `Nc1nc2[nH]c(=O)cnc2c(=O)[nH]1`, under setting [4], the survivor count is recorded as 10 of 10.

In the case of `CNCC(O)c1ccc(O)cc1` (centres undefined), the T/C reads like this: under setting [6], 125 % of control; under setting [7], 143 % of control.

Regarding `COc1cc(C=O)cc(O)c1O`, the survivor count under setting [7] is given as 10 of 10.

For the compound `S=C(SNC1CCCCC1)SNC1CCCCC1`, the survivor count reads like this: (dose: 100.0 mg/kg/injection, schedule: Q04DX003 (ip), vehicle: Klucel (hydroxypropylcellulose) (HPC)) 9 of 9; (dose: 200.0 mg/kg/injection, schedule: Q04DX003 (ip), vehicle: Klucel (hydroxypropylcellulose) (HPC)) 10 of 10; under setting [8], 10 of 10.

As for `CN1CCN(CCCN2c3ccccc3Sc3ccc(C(F)(F)F)cc32)CC1`, the survivor count by setting is: (dose: 1.56 mg/kg/injection, schedule: Q01DX009 (ip), vehicle: saline) 10 of 10; under setting [6], 10 of 10; under setting [9], 3 of 10; (dose: 100.0 mg/kg/injection, schedule: Q01DX009 (ip), vehicle: saline) 0 of 10; (dose: 200.0 mg/kg/injection, schedule: Q01DX009 (ip), vehicle: saline) 0 of 10; under setting [7], 0 of 10.

Regarding `O=[N+]([O-])c1cc(C(F)(F)F)ccc1F`, the T/C (dose: 25.0 mg/kg/injection, schedule: Q01DX009 (ip), vehicle: Klucel (hydroxypropylcellulose) (HPC)) is 142 % of control; the T/C under setting [1] is 139 % of control; the T/C under setting [2] was 145 % of control. For the same compound, under setting [3], the survivor count is reported as 0 of 10.

As to `Cc1cc2c3ccc(C)[n+](C)c3ccc2n1C`, the survivor count is reported as 0 of 6 (dose: 0.6 mg/kg/injection, schedule: Q01DX009 (ip), vehicle: saline); 0 of 6 (dose: 5.0 mg/kg/injection, schedule: Q01DX009 (ip), vehicle: saline); 0 of 6 (dose: 10.0 mg/kg/injection, schedule: Q01DX009 (ip), vehicle: saline).

With `C[C@@H]1C[C@@]2(O[C@@H]2C)C(=O)O[C@@H]2CCN3CC=C(COC(=O)[C@]1(C)O)[C@H]23`, the survivor count (dose: 80.0 mg/kg/injection, schedule: Q01DX009 (ip), vehicle: saline) is 2 of 6.

For the compound `OC(Cc1nc(-c2ccccc2)c(-c2ccccc2)s1)(C(F)(F)F)C(F)(F)F`, the survivor count (dose: 400.0 mg/kg/injection, schedule: Q04DX003 (ip), vehicle: saline with Tween-80) is 10 of 10.

`COC(=O)Nc1nc2ccc(C(=O)c3ccccc3)cc2[nH]1`: the T/C was 128 % of control (dose: 30.0 mg/kg/injection, schedule: Q04DX003 (ip), vehicle: saline with Tween-80); 127 % of control [5 of 6 alive] (dose: 32.0 mg/kg/injection, schedule: Q04DX003 (ip), vehicle: saline with Tween-80); 128 % of control (dose: 40.0 mg/kg/injection, schedule: Q04DX003 (ip), vehicle: saline with Tween-80); 132 % of control (dose: 64.0 mg/kg/injection, schedule: Q04DX003 (ip), vehicle: saline with Tween-80); 130 % of control (dose: 400.0 mg/kg/injection, schedule: Q04DX003 (oral), vehicle: saline with Tween-80). The survivor count is, setting by setting: (dose: 128.0 mg/kg/injection, schedule: Q04DX003 (ip), vehicle: saline with Tween-80) 5 of 6; (dose: 256.0 mg/kg/injection, schedule: Q04DX003 (ip), vehicle: saline with Tween-80) 1 of 6; (dose: 512.0 mg/kg/injection, schedule: Q04DX003 (ip), vehicle: saline with Tween-80) 0 of 6.

Take `CCCCOC(=O)c1ccc(NC(=O)Nc2ccccc2Cl)cc1`: the survivor count was 9 of 10 under setting [10] and 7 of 10 under setting [5].

As to `CCCCCCCCCCCCCC(=O)N(C)C`, the survivor count under setting [9] was 10 of 10, the survivor count under setting [10] was 10 of 10 and the survivor count under setting [5] is listed as 10 of 10.

Take `Cc1[nH]c(=O)[nH]c(=O)c1C`: the survivor count under setting [1] is recorded as 10 of 10.

In the case of `[Cl][Pt+2][Cl].[NH-]C1CCC1.[NH2-]`, the survivor count (dose: 6.0 mg/kg/injection, schedule: Q01DX009 (ip), vehicle: saline) is on record as 10 of 10 and the survivor count (dose: 12.0 mg/kg/injection, schedule: Q01DX009 (ip), vehicle: saline) was 1 of 10.

For the compound `O=C1Nc2ccc(Cl)cc2C(c2ccccc2)=NC1O` (centres undefined), the T/C reads like this: (dose: 3.12 mg/kg/injection, schedule: Q01DX009 (ip), vehicle: saline) 125 % of control; (dose: 12.5 mg/kg/injection, schedule: Q01DX009 (ip), vehicle: saline) 127 % of control; (dose: 25.0 mg/kg/injection, schedule: Q01DX009 (ip), vehicle: saline, evaluated on day 30) 131 % of control; (dose: 25.0 mg/kg/injection, schedule: Q01DX009 (ip), vehicle: saline, evaluated on day 60) 125 % of control; under setting [9], 125 % of control.

Consider `COC(=O)C1(C(=O)OC)CCCCC1=O`, for which, under setting [8], the survivor count is given as 10 of 10.

Consider `CC1(S)CCC2CC1C2(C)C` (centres undefined), for which the survivor count was 10 of 10 under setting [1], 6 of 6 under setting [2] and 5 of 6 under setting [3].
